In article PMC4914304:
Changes are numbered by the printed parent chain. In names and notes the source's numbering stands. No constants are given. Whether binding was seen depends on the method and setting. In cells and extracts the contact can be indirect. Some results given as binding are weak or reduced against the parent protein; the word gives no strength. Tags and fused reporters may be left off the sequences shown.

The chains behind the UniProt entries cited, without tags or fusion partners.
UniProt Q8NHY2: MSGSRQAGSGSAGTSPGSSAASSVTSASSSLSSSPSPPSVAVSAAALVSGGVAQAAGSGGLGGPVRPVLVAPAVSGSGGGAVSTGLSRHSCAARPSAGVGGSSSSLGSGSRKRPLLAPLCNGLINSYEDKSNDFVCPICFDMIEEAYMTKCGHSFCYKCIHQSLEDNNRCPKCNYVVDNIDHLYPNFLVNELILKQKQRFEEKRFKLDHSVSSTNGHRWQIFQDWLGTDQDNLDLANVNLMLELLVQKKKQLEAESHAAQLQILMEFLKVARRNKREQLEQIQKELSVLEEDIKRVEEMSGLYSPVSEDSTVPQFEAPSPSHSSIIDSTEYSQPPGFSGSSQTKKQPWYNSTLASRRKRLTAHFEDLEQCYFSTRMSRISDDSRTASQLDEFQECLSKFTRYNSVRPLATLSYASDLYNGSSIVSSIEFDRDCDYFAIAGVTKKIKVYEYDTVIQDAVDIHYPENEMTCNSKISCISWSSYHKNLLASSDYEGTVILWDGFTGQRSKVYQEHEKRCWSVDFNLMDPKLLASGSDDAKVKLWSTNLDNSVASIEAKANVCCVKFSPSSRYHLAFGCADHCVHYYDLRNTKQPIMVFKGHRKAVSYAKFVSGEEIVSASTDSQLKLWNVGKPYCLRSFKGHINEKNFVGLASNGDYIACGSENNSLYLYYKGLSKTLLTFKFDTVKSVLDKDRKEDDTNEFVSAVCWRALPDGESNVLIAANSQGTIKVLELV

B1: ETS2 S220A,S225A (protein, UniProt P15036 1-469)
chain: MNDFGIKNMDQVAPVANSYRGTLKRQPAFDTFDGSLFAVFPSLNEEQTLQEVPTGLDSISHDSANCELPLLTPCSKAVMSQALKATFSGFKKEQRRLGIPKNPWLWSEQQVCQWLLWATNEFSLVNVNLQRFGMNGQMLCNLGKERFLELAPDFVGDILWEHLEQMIKENQEKTEDQYEENSHLTSVPHWINSNTLGFGTEQAPYGMQTQNYPKGGLLDAMCPAATPSVLSSEQEFQMFPKSRLSSVSVTYCSVSQDFPGSNLNLLTNNSGTPKDHDSPENGADSFESSDSLLQSWNSQSSLLDVQRVPSFESFEDDCSQSLCLNKPTMSFKDYIQERSDPVEQGKPVIPAAVLAGFTGSGPIQLWQFLLELLSDKSCQSFISWTGDGWEFKLADPDEVARRWGKRKNKPKMNYEKLSRGLRYYYDKNIIHKTSGKRYVYRFVCDLQNLLGFTPEELHAILGVQPDTED
B2: ETS2 S220A,S225A,S248A (serine triple mutant) (protein, UniProt P15036 1-469)
chain: B1 chain with S248A
B3: ETS2 with serines 220, 225, 246, 248, 255 and 319 mutated to alanines (protein, UniProt P15036 1-469)
chain: B1 chain with S246A, S248A, S255A, S319A
B4: Myc-ETS2 wild-type (protein, UniProt P15036 1-469)
chain: B1 chain with A220S, A225S

What follows are binders tested against Myc-COP1 (human) (UniProt Q8NHY2) (assay: co-IP; PC3 cells transfected 24 h with ETS2 (wild type or alanine mutants) and COP1; MG-132 for 6 h before harvest; IP with anti-COP1 antibodies; Western blot).

Binder	binding
B1	binds
B2	binds
B3	binds
B4	binds
